{
  "source": "paper PMC12040169",
  "about": "(PLOS Biology, 2025)",
  "note": "Some of the results follow.",
  "data": [
    {"test_system": "T1, CTL2-GFP (C. trachomatis L2/434/Bu, GFP-expressing)", "T1 construct": "L2/434/Bu, GFP-expressing", "parameters": "species or system HeLa; Intracellular C. trachomatis growth in HeLa cells, bulk GFP fluorescence relative to DMSO", "conditions": "bulk GFP, single well; 28.5 h, 10 µM; inhibitor", "units": {"% of control remaining": "%"}, "values": [
      {"compound": "COCCNC(=O)C1CCN(c2nc3c(-c4cccc(C)c4)csc3c(=O)[nH]2)CC1", "note": "[CBK215629]", "% of control remaining": 122.275},
      {"compound": "COc1ccc(CNC(=S)Nc2cccc(C(F)(F)F)c2)cc1OC", "note": "[CBK266977]", "% of control remaining": 151.935},
      {"compound": "O=C(CSc1nnc2scc(-c3ccccc3)n12)Nc1nsc(-c2ccc(Cl)cc2)n1", "note": "[CBK266576]", "% of control remaining": 138.402},
      {"compound": "COCCNc1nc(-c2cccc3cccnc23)cn2ccnc12", "note": "[CBK037314]", "% of control remaining": 182.154},
      {"compound": "O=C(CCN1CCCC1Cn1cncn1)NCCc1ccccc1", "note": "(stereo not shown) [CBK305677]", "% of control remaining": 102.48},
      {"compound": "Cn1c(=O)c2c(nc(Oc3ccccc3Cl)n2Cc2cccc(C(F)(F)F)c2)n(C)c1=O", "note": "[CBK265940]", "% of control remaining": 126.31},
      {"compound": "COc1ccc(C(=O)N[C@@H]2CC[C@@]3(c4ccc(OC)c(OC)c4)CCN(C)[C@H]3C2)c(OC)c1", "note": "[CBK074247T]", "% of control remaining": 116.496},
      {"compound": "Fc1ccc(-c2cncc(NCCc3ccncc3)n2)c(F)c1", "note": "[CBK065810]", "% of control remaining": 120.813},
      {"compound": "Oc1cccc(/C=N/c2nnn[nH]2)c1", "note": "[CBK260977]", "% of control remaining": 116.338},
      {"compound": "CC(NC(=O)c1ccccc1)c1nnc(SCC(=O)N2CCOCC2)n1C", "note": "(stereo not shown) [CBK269647]", "% of control remaining": 120.734},
      {"compound": "CN1CCN(C2=NC(=O)CC(C(=O)Nc3ccccc3)N2)CC1", "note": "(stereo not shown) [CBK267884]", "% of control remaining": 121.626},
      {"compound": "Cn1cccc1CCC(=O)NC1CCN(Cc2ccccc2Cl)CC1", "note": "[CBK306814]", "% of control remaining": 158.644},
      {"compound": "CN(C)CCNC(=S)Nc1ccc([N+](=O)[O-])cc1", "note": "[CBK266964]", "% of control remaining": 106.269},
      {"compound": "Cc1ccc(C)c(NC(=O)C2CN(S(=O)(=O)c3ccccc3)CCN2S(=O)(=O)c2ccccc2)c1", "note": "(stereo not shown) [CBK267349]", "% of control remaining": 82.1177},
      {"compound": "CCN1CCCC1CNC(=O)c1cccc(Cl)c1", "note": "(stereo not shown) [CBK262621]", "% of control remaining": 100},
      {"compound": "CCNC(=O)N1CC2(CCN(Cc3ccc(Cl)c(Cl)c3)CC2)c2ccccc21", "note": "[CBK126690]", "% of control remaining": 121.357},
      {"compound": "COc1cc(NC(=O)COc2ccc3ccccc3c2)c(C(=O)O)cc1OC", "note": "[CBK264181]", "% of control remaining": 113.702},
      {"compound": "CC(=O)NC1(c2ccccc2F)CCN(CC(=O)N(C)C)CC1", "note": "[CBK283618]", "% of control remaining": 131.114},
      {"compound": "OC1(c2cccnc2)CCN(CC2(c3ccc(Cl)cc3)CC2)CC1", "note": "[CBK282780]", "% of control remaining": 102.98},
      {"compound": "O=C(c1ccc2ncccc2c1)N1CCC(c2ccncc2)CC1", "note": "[CBK283684]", "% of control remaining": 140.539},
      {"compound": "c1ccc(Nc2ccccc2Nc2ccccn2)nc1", "note": "[CBK261806]", "% of control remaining": 100},
      {"compound": "CCc1nc2ccc(C(=O)N3CCC(O)(Cc4ccccc4)CC3)cn2c1N(CC)C(=O)CCC1CCCC1", "note": "[CBK146854]", "% of control remaining": 100},
      {"compound": "CN1CCN(C(=O)c2ccc(-c3cncc(-c4ccc(O)cc4)n3)c(F)c2)CC1", "note": "[CBK126752]", "% of control remaining": 149.171},
      {"compound": "CCC(O)CNS(=O)(=O)c1ccc(OC(F)(F)F)cc1", "note": "(stereo not shown) [CBK043557]", "% of control remaining": 122.905},
      {"compound": "COC(=O)c1cc(C#N)c(=O)n(CC(O)COc2cccc(Br)c2)c1", "note": "(stereo not shown) [CBK304984]", "% of control remaining": 58.4262},
      {"compound": "O=C(O)CN(c1ccccc1[N+](=O)[O-])S(=O)(=O)c1ccccc1", "note": "[CBK263158]", "% of control remaining": 100},
      {"compound": "NS(=O)(=O)c1ccc(NC(=S)NC(=O)c2ccc(Cl)cc2Cl)cc1", "note": "[CBK266265]", "% of control remaining": 130.41},
      {"compound": "Cn1nc(NC(=O)COCC(=O)O)c2ccccc21", "note": "[CBK057114]", "% of control remaining": 119.592},
      {"compound": "CN(C(=O)CCC(=O)O)c1ccccc1C(=O)O", "note": "[CBK261429]", "% of control remaining": 120.243},
      {"compound": "O=C(Cc1ccccc1F)N1CCC(c2n[nH]c3ncccc23)CC1", "note": "[CBK284908]", "% of control remaining": 105.945},
      {"compound": "O=C1NC2(CCN(C(=O)c3ccco3)CC2)Nc2ccccc21", "note": "[CBK284762]", "% of control remaining": 77.8484},
      {"compound": "CC(C)Nc1cc(SC2CCCCC2)ncn1", "note": "[CBK107163]", "% of control remaining": 106.812},
      {"compound": "CCCC12CN3CC(CCC)(CN(C1)C3c1ccc([N+](=O)[O-])cc1)C2=O", "note": "(stereo not shown) [CBK264481]", "% of control remaining": 139.113},
      {"compound": "C=C(C)Cn1c(-c2ccccc2C)nnc1S(=O)(=O)CC(C)C", "note": "[CBK200074]", "% of control remaining": 121.231},
      {"compound": "C=CCn1c(SCC(=O)Nc2nc3ccc(OCC)cc3s2)nc2cc(C(=O)O)ccc2c1=O", "note": "[CBK297520]", "% of control remaining": 82.1661},
      {"compound": "Cc1nn(C)c(N2CCNCC2)c1NC(=O)C1=CC(=O)CC(C)(C)O1", "note": "[CBK050362T]", "% of control remaining": 100},
      {"compound": "CN(Cc1ccc(-c2ccc(S(C)(=O)=O)cc2)nc1)C1CCN(C(=O)Cc2cccc(C(F)(F)F)c2)CC1", "note": "[CBK164104T]", "% of control remaining": 69.962},
      {"compound": "COc1cc(/C=N/NC(=O)CSc2n[nH]c(=O)[nH]c2=O)cc(OC)c1O", "note": "[CBK263527]", "% of control remaining": 127.59},
      {"compound": "Nc1ncc(Br)nc1N1CCC[C@@H]1CO", "note": "[CBK085450]", "% of control remaining": 135.619},
      {"compound": "O=[N+]([O-])c1c(N(CCO)CCO)cc(Cl)c2nonc12", "note": "[CBK261446]", "% of control remaining": 117.202}
    ]}
  ]
}
